Some peptides are written in HELM: one residue between dots, names in brackets for other building blocks, links after the first $.

A short description of the series: general procedure: Fmoc solid-phase peptide synthesis; 2-chlorotrityl chloride (CTC) resin, ChemImpex, 1.0-1.7 meq/g; HATU (macrolactamisation and side-chain amino acid coupling). Conditions: for isolated yield / crude mass / crude yield / isolated mass: whole synthesis; for cyclisation yield: cyclisation step.

Regarding “PEPTIDE1{[CmPhe].[Orn].[Pro4S-NHCm].[D-Cha4OHcis].W.R}$PEPTIDE1,PEPTIDE1,2:R3-6:R2$$$V2.0”, the isolated yield is 5.7%. For the same substance, where the note is “scale 0.2 mmol”, the crude mass was found to be 297 mg and the crude yield result was “crude yield 100%”.

In turn, “PEPTIDE1{[CmPhe].[Orn].P.[D-Cha4OHcis].[7AzaTrp].R}$PEPTIDE1,PEPTIDE1,2:R3-6:R2$$$V2.0” gave an isolated yield of 6.6%. Besides, under “scale 0.2 mmol”, the crude mass is recorded as 271 mg and the crude yield result was “crude yield 100%”.

On to “PEPTIDE1{[CmPhe].[Orn].[Hyp].[D-Cha4OHcis].[AlaIndazol3yl].R}$PEPTIDE1,PEPTIDE1,2:R3-6:R2$$$V2.0”, for which the isolated yield worked out at 10%. The substance also had a cyclisation yield (on linear hexapeptide (0.059 mmol)) of 35%. In addition, where the note is “scale 0.6 mmol”, the isolated mass came to 100 mg.

“PEPTIDE1{[CmPhe].[Orn].[Pro4S-NHAc].[D-Cha4OHcis].W.R}$PEPTIDE1,PEPTIDE1,2:R3-6:R2$$$V2.0”: the crude yield was determined as 100% and the isolated yield is 30%.

Consider “PEPTIDE1{[CmPhe].[Orn].[Pro4R-NHAc].[D-Cha4OHcis].W.R}$PEPTIDE1,PEPTIDE1,2:R3-6:R2$$$V2.0”, for which the crude yield came out at 100% and the isolated yield was 20%.

With “PEPTIDE1{[CmPhe].[Orn].[Pro4R-NHCm].[D-Cha4OHcis].W.R}$PEPTIDE1,PEPTIDE1,2:R3-6:R2$$$V2.0”, the isolated yield stood at 19.4%.

Substance “PEPTIDE1{[CmPhe].[Orn].[HypOCm].[D-Cha4OHcis].W.R}$PEPTIDE1,PEPTIDE1,2:R3-6:R2$$$V2.0” came in with a cyclisation yield of 83%. Further, under “late stage modification step”, the step yield was determined as 35.8%. Moreover, under “scale 1.0 mmol”, the crude mass is 775 mg and the crude yield came to 79%.

The substance “PEPTIDE1{[CmPhe].[Orn].[Hyp].[D-Cha4OHcis].[Trp6OMe].R}$PEPTIDE1,PEPTIDE1,2:R3-6:R2$$$V2.0” registered an isolated yield of 2.3%.

Substance “PEPTIDE1{[CmPhe].[Orn].[Pro4S-NH2].[D-Cha4OHcis].W.R}$PEPTIDE1,PEPTIDE1,2:R3-6:R2$$$V2.0” came in with a cyclisation yield of 100%. Further, where the note is “scale 3.0 mmol”, the isolated mass is 312 mg and the isolated yield was 10%.

Consider “((S)-1-(((3R,6S,9S,15S,19R,20aS)-6-((1H-indol-3-yl)methyl)-9-(3-guanidinopropyl)-19-hydroxy-3-(((1s,4S)-4-hydroxycyclohexyl)methyl)-1,4,7,10,16-pentaoxoicosahydropyrrolo[1,2-a][1,4,7,10,13]pentaazacyclooctadecin-15-yl)amino)-1-oxo-3-(3,5-dideuterophenyl)propan-2-yl)glycine”, for which the step yield was 94% crude yield (coupling step) and 100% crude yield (late stage modification step).

Consider “PEPTIDE1{[CmPhe].[Orn].[Hyp].[D-Cha4OHcis].[Ala4MePz].R}$PEPTIDE1,PEPTIDE1,2:R3-6:R2$$$V2.0”, for which the cyclisation yield amounted to 48% and the crude yield turned out to be 80%. This substance yielded a step yield (late stage modification step) of 46%.

The substance “PEPTIDE1{[CmPhe].[Orn].[Pro4R-NH2].[D-Cha4OHcis].W.R}$PEPTIDE1,PEPTIDE1,2:R3-6:R2$$$V2.0” displayed a crude yield of 100% and an isolated yield of 6.6%.

“PEPTIDE1{[CmNMePhe].[Orn].[Hyp].[D-Cha4OHcis].W.R}$PEPTIDE1,PEPTIDE1,2:R3-6:R2$$$V2.0”: the cyclisation yield entry is given as “crude yield 100%” and the isolated yield is recorded as 5.2%. For the setting “scale 0.3 mmol”, the crude mass was 402 mg and the crude yield result is listed as “crude yield 100%”.

Take “PEPTIDE1{[CmPhe].[Orn].[Hyp].[D-Cha4OHcis].[7AzaTrp].R}$PEPTIDE1,PEPTIDE1,2:R3-6:R2$$$V2.0”: the isolated yield worked out at 4.8%. Moreover, under “scale 0.2 mmol”, the crude mass was determined as 286 mg and the crude yield entry was “crude yield 100%”.

On to “PEPTIDE1{[CmPhe].[Orn].[Hyp].[D-Cha4OHcis].[Trp6Et].R}$PEPTIDE1,PEPTIDE1,2:R3-6:R2$$$V2.0”, for which the cyclisation yield is recorded as 42% and the crude yield entry is recorded as “crude yield 50%”. Further, the step yield (late stage modification step) stood at 19%.
